Patent publication US11168052B2, “Carbamate derivative compounds, processes for preparing them and their uses” (BIO-PHARM SOLUTIONS CO., LTD., priority 2016, dated 2021)

Tests used:
[1] = tested on: acetic acid-induced writhes in ICR mice; test: Writhing test (acetic acid); assay type: in vivo; details: po
Description: To examine the pain relief effect of the carbamate compounds, a writhing test was conducted, referring to Fischer, L. G. et al. (2008).
(§1) ICR mice (male, 24-28g; Orient Bio, Korea) were habituated before test (in test room) for 1 hour. Animals were fasted 2 hr before administration of compounds. Each of compounds was orally administered at the three dose, 10 ul/g, bw (n=3-5/group). All compounds were dissolved in a vehicle of 30% (v/v) PEG 400 or 20% (v/v) Tween 80. The control group was treated the vehicle without compounds.
0.2-2 hour after the administration of compounds, 0.6% acetic acid at the dose of 10 ul/g by bodyweight was injected into the mice Animals were habituated in the cage for 5 min. 5 min after habituation, the number of writhes (abdominal constriction) was counted for 15 min, referring to Korzeniewska-Rybicka, I. et al. (1998) and compared with that of a control.
The relative values compared to the control (% control) were calculated and shown in […]

[2] = tested on: PTZ (Pentylenetetrazol)-induced clonic seizure in mice; test: Anti-epilepsy activity, scPTZ test in mouse; assay type: in vivo, ICR mice
From the text: (§2) In this experiment, each test compound sample was formulated as described in Biological Experimental Example 1, and administered intraperitoneally to the test animals (mice; ICR or Rat; SD); Experimental animals, male ICR mice and male SD rats, were purchased from OrientBio or Nara biotech, Korea, and housed 4-5 mice per a cage for 4-5 days. The range of mice body weight was used between 19 and 26 grams and range of rats body weight was used between 100 and 130 grams. After Peak time (0.5, 1, 2 and 4 hr) from the administration, PTZ (Pentylenetetrazol) was administered subcutaneously in the concentration capable of inducing 97% intermittent convulsions (mice: 100-110 mg/kg?bw, 10 μl/g, or rats: 90-110 mg/kg?bw, 2 μl/g). If clonic seizure was not observed for at least 30 minutes in the PTZ administered animal, it can be considered that the test compound has anti-epilepsy activity. The median effective dose (ED50) is determined using 6 animals per a concentration (total three different concentrations), and calculated by Litchfield and Wicoxon log-probit method which is a dose-response relationship.

ICR mice on hot plate = test: Hot-plate test; assay type: in vivo; details: orally
Description: To examine the pain relief effect of the carbamate compounds, a hot-plate test was conducted in referring to Current Protocols in Neuroscience; Behavioral Neuroscience Unit 8.9.
as §1, with “25-28 g;” for “24-28g;”, “Compounds were” for “Each of compounds was”, “by bodyweight (n=4-6/group).” for “bw (n=3-5/group).”
0.25-2.0 hr after the administration of compounds, the mice were put on a hot plate pre-heated to 55±1 (Hu, X. et al, 2008), and then, the withdrawal latency time was measured (cut-off time: 30 sec) until the point when each mouse was taking a paw off from the plate, shaking, licking a paw or hind leg, or jumping from the plate.

[3] = tested on: MES (electroshock) seizure in mice; test: Anti-epilepsy activity, MES test in mouse; assay type: in vivo, ICR mice
Procedure, shortened: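 Male ICR mice (19–25 g) and male SD rats (100–130 g) dosed orally with compound in 20% Tween 80/saline, then shocked via corneal electrodes at peak time (mice 50 mA, rats 150 mA; 60 Hz, 0.2 sec). Three doses used; ED50 for seizure protection by Litchfield–Wilcoxon log-probit.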

[4] = tested on: PTZ (Pentylenetetrazol)-induced clonic seizure in rats; test: Anti-epilepsy activity, scPTZ test in rats; assay type: in vivo, SD rats
From the text: as §2

corneally kindled rats = test: Corneal kindling (CK) rat model; assay type: in vivo, Sprague-Dawley rats; details: p.o.
From the text: Male Sprague-Dawley rats (purchased from Orient Bio Inc. Korea) of body weight 85-100 g were used for these studies. The MES test using the electroshock seizure apparatus designed by Rodent Shocker Type221 (Hugo Sachs Elektronik, Germany). The kindled rat models were electrically stimulated (8 mA, 60 Hz, 2 s, corneal electrodes) twice daily for 21 days until stage 5 seizure scored by Racine's scale (Racine, 1972) were evoked. The kindled rats were fasted and adapted to test condition, for at least 1 hour before the administration of test material. The drugs were administered orally (p.o.) in a volume of 4 μl/g body weight. The corneally kindled rat model test is a model for generalized […] seizures or bipolar disorder and identifies the compound which prevents seizure or bipolar disorder spread. The shock level was set at 8 mA, 60 Hz and the duration was set at 2 s. A drop of 0.9% saline was placed in each eye, the electrodes were placed over the eyes, and the shock was administered immediately. Pharmacological effects of the test materials were evaluated to compare the test groups (n=6) with a control group (n=6). Control group was administrated vehicle, only. The peak time was determined by administration test material's random dose for 0.5, 1, 2, 4 hour. The time that the most protect was defined peak time and ED50 was determined by other dose administration at peak time. […]

Compound | Writhing test Peak Time [1] [h] | PTZ test (ip) Peak time [2] [h] | Hot-plate test Peak Time (ICR mice on hot plate) [h] | MES test (po) Peak time [3] [h] | scPTZ test (ip) peak time [4] [h] | CK Peak Time (corneally kindled rats) [h]
NC(=O)O[C@@H]1CCc2cccc(Cl)c2[C@@H]1O [Example 1, (1S, 2R)-8-chloro-1-hydroxy-1,2,3,4-tetrahydronaphthalen-2-yl carbamate] | 1 | 0.5 | 1 | 0.5 | 0.5 | 2
NC(=O)O[C@@H]1c2c(Cl)cccc2CC[C@@H]1O [Example 19, (1R, 2S)-8-chloro-2-hydroxy-1,2,3,4-tetrahydronaphthalen-1-yl carbamate] | 1 |  |  | 1 | 4 | 
